Values from PubChem BioAssay AID1508597 (Cure First, 2020)
Aim: 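Genes whose silencing sensitises or protects ovarian cancer cells against rucaparib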 (primary screen). Cells: human ovarian carcinoma lines grown from tumours: OCI-P5x (papillary serous) and OCI-C5x (clear cell). Knock-down reagent: siRNA pool against human genes, 1.25 pmol siRNA per well. Duration: 72 h or 96 h, depending on the cell culture. Treatment: rucaparib 20 µM (about IC30) or vehicle, present until read-out. Rucaparib or vehicle: Vehicle. Cell line: OCI-P5x (serous). Measured: 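ATP luminescence measured at 72 or 96 h according to the culture, then normalised and expressed as percent viability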. Direction: viability, normalised: higher = more viable cells remaining. Call rule: 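Active when normalised viability falls below 80 percent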. Meaning of the calls: active = viability under 80%; inactive = viability 80% or more.
Shown is an unselected part of the about 2,100 reagents, in one setting of the screen. 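Calls flag viability under 80% in either arm, not effects specific to rucaparib; the reference for percent is not stated.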 Some reagents were tested in more than one well and are listed for each. Not given: the 100% reference.

gene symbol	technical replicate	viability, normalised (%)	call
PIP5K1A (GeneID 8394)	1	83.2	inactive
PIP5K1A (GeneID 8394)	2	65.8	active
PIP5K1A (GeneID 8394)	3	55.8	active
MAP2K1 (GeneID 5604)	1	73.9	active
MAP2K1 (GeneID 5604)	2	83.7	inactive
MAP2K1 (GeneID 5604)	3	65.6	active
CA14 (GeneID 23632)	1	54.6	active
CA14 (GeneID 23632)	2	59	active
CA14 (GeneID 23632)	3	55.9	active
RP2 (GeneID 6102)	1	52.9	active
RP2 (GeneID 6102)	2	57.6	active
RP2 (GeneID 6102)	3	48.7	active
FRK (GeneID 2444)	1	86.9	inactive
FRK (GeneID 2444)	2	74.6	active
FRK (GeneID 2444)	3	86.3	inactive
RFK (GeneID 55312)	1	78.9	active
RFK (GeneID 55312)	2	69.7	active
RFK (GeneID 55312)	3	52	active
ENPP7 (GeneID 339221)	1	57.5	active
ENPP7 (GeneID 339221)	2	62.8	active
ENPP7 (GeneID 339221)	3	82.9	inactive
MPLKIP (GeneID 136647)	1	72.9	active
MPLKIP (GeneID 136647)	2	61.3	active
MPLKIP (GeneID 136647)	3	61.5	active
DLG4 (GeneID 1742)	1	57.2	active
DLG4 (GeneID 1742)	1	85.1	inactive
DLG4 (GeneID 1742)	2	59.7	active
DLG4 (GeneID 1742)	2	76.1	active
DLG4 (GeneID 1742)	3	71.6	active
DLG4 (GeneID 1742)	3	62.4	active
BTG2 (GeneID 7832)	1	84.8	inactive
BTG2 (GeneID 7832)	2	84.9	inactive
BTG2 (GeneID 7832)	3	85.2	inactive
ING1 (GeneID 3621)	1	84.6	inactive
ING1 (GeneID 3621)	2	87.5	inactive
ING1 (GeneID 3621)	3	80.8	inactive
RAB32 (GeneID 10981)	1	88.8	inactive
RAB32 (GeneID 10981)	2	78	active
RAB32 (GeneID 10981)	3	72.9	active
BCL6 (GeneID 604)	1	63.3	active
BCL6 (GeneID 604)	2	64.7	active
BCL6 (GeneID 604)	3	72.8	active
SIRT5 (GeneID 23408)	1	50.1	active
SIRT5 (GeneID 23408)	2	68.5	active
SIRT5 (GeneID 23408)	3	78.2	active
EYA2 (GeneID 2139)	1	60.1	active
EYA2 (GeneID 2139)	2	56.8	active
EYA2 (GeneID 2139)	3	59.1	active
MTREX (GeneID 23517)	1	55.4	active
MTREX (GeneID 23517)	2	61	active
MTREX (GeneID 23517)	3	66.8	active
NME6 (GeneID 10201)	1	64.2	active
NME6 (GeneID 10201)	1	85.5	inactive
NME6 (GeneID 10201)	2	49	active
NME6 (GeneID 10201)	2	58.2	active
NME6 (GeneID 10201)	3	74.1	active
NME6 (GeneID 10201)	3	65.5	active

A stretch of the results above, as a working copy:
gene symbol	technical replicate	viability, normalised (%)	call
RFK (GeneID 55312)	2	69.7	active
RFK (GeneID 55312)	3	52	active
ENPP7 (GeneID 339221)	1	57.5	active
ENPP7 (GeneID 339221)	2	62.8	active
